Source: the supplement of paper PMC4962491
± gives the standard deviation of the averaged measurements. This is a selection; strong and weak results do not stand in their true shares. Most values lie within the scatter of the assay; repeated measurements hardly agree. Peptide text beside a SMILES is read from it.

Tested on: FaDu
Assay: mitochondrial oxygen consumption rate normalised to cell number, Z score over the library; higher = higher oxygen consumption (negative = OCR reduction)
Conditions: treatment time 24 h, assay medium: 5 mM galactose, 5 mM pyruvate, 4 mM glutamine
Method: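 Primary screen: FaDu cells were incubated 24 h with Pharmakon 1600 / TDI oncology set compounds at 2 or 10 uM. Mitochondrial-specific OCR (basal minus 2 uM antimycin A) was measured on a Seahorse XF96 in assay medium with 5 mM galactose, 5 mM pyruvate and 4 mM glutamine, then corrected for Hoechst cell number and expressed as a Z score […]. Compounds that cut cell number by >66% were excluded. Two repeats.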

Structure (SMILES) | mitochondrial oxygen consumption rate normalised (2 µM) | mitochondrial oxygen consumption rate normalised (10 µM)
CCOC(=O)Nc1nc2ccccc2[nH]1 | -0.438 ± 0.052 | –
CC(C)[N+]1(C)[C@@H]2CC[C@H]1C[C@@H](OC(=O)C(CO)c1ccccc1)C2 (some centres not stated) | 0.772 ± 0.15 | –
Cc1ccc(-c2cc(C(F)(F)F)nn2-c2ccc(S(N)(=O)=O)cc2)cc1 [Celecoxib] | 0.7658 ± 0.005 | –
Cc1ccc(-c2cc(C(F)(F)F)nn2-c2ccc(S(N)(=O)=O)cc2)cc1 | 0.564 ± 1.7 | –
Nc1ccc(S(=O)(=O)Nc2nccs2)cc1 | -1.01 ± 0.35 | –
CN[C@H]1CC[C@@H](c2ccc(Cl)c(Cl)c2)c2ccccc21 | -0.314 ± 0.79 | –
CC[C@H]1OC(=O)[C@H](C)[C@@H](O[C@H]2C[C@@](C)(OC)[C@@H](O)[C@H](C)O2)[C@H](C)[C@@H](O[C@@H]2O[C@H](C)C[C@H](N(C)C)[C@H]2O)[C@](C)(O)C[C@@H](C)CN(C)[C@H](C)[C@@H](O)[C@]1(C)O | 0.241 ± 1.8 | –
CCCCCCOc1ccccc1C(N)=O | -0.126 ± 0.21 | –
NC[C@H](O)c1ccc(O)c(O)c1 | 0.567 ± 0.44 | –
CCN(CC)CCNC(=O)c1ccc(N)cc1 | -0.12 ± 0.026 | –
O=C(O)C1=C(CSc2nnnn2CS(=O)(=O)O)CS[C@@H]2[C@H](NC(=O)[C@H](O)c3ccccc3)C(=O)N12 | -0.712 ± 0.12 | –
O=C(CCCl)NCCc1ccccc1 | 0.7 ± 1 | –
CC(C)Oc1ccc2c(=O)c(-c3ccccc3)coc2c1 | -0.13 ± 0.18 | –
CC(=O)Nc1nnc(S(N)(=O)=O)s1 | 0.734 ± 0.52 | –
CC(=O)Nc1c(I)cc(I)c(C(=O)O)c1I | 1.09 ± 1.1 | –
Cc1cc2cc3c(C)cc(=O)oc3c(C)c2o1 | -0.219 ± 0.42 | –
CCCCOc1cc(C(=O)OCCN(CC)CC)ccc1N | 0.34 ± 0.17 | –
C[N+](C)(C)CC(O)CC(=O)[O-] (configuration not stated) | -0.695 ± 0.23 | –
COC(=O)[C@H](Cc1ccccc1)NC(=O)[C@@H](N)CC(=O)O (H-Asp-Phe-OMe) | 0.939 ± 0.71 | –
CO/N=C(\C(=O)N[C@@H]1C(=O)N2C(C(=O)O)=C(COC(C)=O)CS[C@H]12)c1csc(N)n1 | 0.928 ± 0.49 | –
O=C(NCCCN1CCOCC1)c1ccc(Cl)cc1 | 0.598 ± 0.27 | –
COc1cc(CNC(=O)CCCC/C=C/C(C)C)ccc1O | 0.255 ± 0.27 | –

Structure (SMILES) | mitochondrial oxygen consumption rate normalised (2 µM) | mitochondrial oxygen consumption rate normalised (10 µM)
C[C@]12CC[C@@H]3c4ccc(O)cc4C[C@@H](CCCCCCCCC[S+]([O-])CCCC(F)(F)C(F)(F)F)[C@H]3[C@@H]1CC[C@@H]2O (some centres not stated) | 0.669 ± 1.3 | –
COc1ccc(-c2ccc3cc(C(=O)O)ccc3c2)cc1C12CC3CC(CC(C3)C1)C2 | -0.151 ± 0.26 | –
CCN1CCCC1CNC(=O)c1cc(S(N)(=O)=O)ccc1OC (configuration not stated) | 0.272 ± 0.4 | –
N[C@@H](COP(=O)(O)O)C(=O)O | 0.689 ± 1.4 | –
Cc1cccc(N(C)C(=S)Oc2ccc3ccccc3c2)c1 | 0.186 ± 0.12 | –
O=c1[nH]c(=O)n([C@H]2C[C@H](O)[C@@H](CO)O2)cc1I | 1.73 ± 0.48 | –
CCCCc1oc2ccccc2c1C(=O)c1cc(I)c(OCCN(CC)CC)c(I)c1 | 0.701 ± 0.032 | –
O=C(O)c1cccnc1 | 0.431 ± 0.04 | –
CCC(=O)OCC(=O)[C@@]1(OC(=O)CC)[C@@H](C)C[C@H]2[C@@H]3CCC4=CC(=O)C=C[C@]4(C)[C@@]3(F)[C@@H](O)C[C@@]21C | 0.287 ± 0.33 | –
CC1(C)O[C@@H]2C[C@H]3[C@@H]4C[C@H](F)C5=CC(=O)CC[C@]5(C)[C@H]4[C@@H](O)C[C@]3(C)[C@]2(C(=O)CO)O1 | -0.256 ± 0.57 | –
NNC(=O)c1ccncc1 | -0.733 ± 0.55 | –
CN1CCCN=C1/C=C/c1cccs1 | -0.789 ± 0.38 | –
CCC[C@@H]1C[C@@H](C(=O)N[C@@H]([C@H]2O[C@H](SC)[C@H](O)[C@@H](O)[C@H]2O)[C@@H](C)O)N(C)C1 | -0.898 ± 0.38 | –
CCCCC(CC)COc1ccc(-c2nc(-c3ccc(OC)cc3)nc(-c3ccc(OCC(CC)CCCC)cc3O)n2)c(O)c1 (configuration not stated) | 0.579 ± 1.4 | 0.282 ± 0.45
O=c1cc[nH]c(=O)[nH]1 | 1.05 ± 0.88 | –
CCOc1ccc(Cc2nccc3cc(OCC)c(OCC)cc23)cc1OCC | -0.998 ± 0.28 | –
O=C(Nc1ccc([N+](=O)[O-])cc1Cl)c1cc(Cl)ccc1O | 2.08 ± 1.6 | –
C#C[C@]1(O)CC[C@H]2[C@@H]3CCC4=Cc5oncc5C[C@]4(C)[C@H]3CC[C@@]21C | -0.078 ± 1.4 | –
Nc1ccc(S(=O)(=O)O)cc1.Nc1ccc(S(=O)(=O)O)cc1.[Zn] | 0.922 ± 1.1 | 1.04 ± 0.43
CC12CC3CC(C)(C1)CC(N)(C3)C2 | 0.00395 ± 0.27 | –
CN1C(C(=O)Nc2ccccn2)=C(O)c2sc(Cl)cc2S1(=O)=O | 0.313 ± 1.3 | –
C[N+](C)(C)C[C@H](O)CC(=O)[O-] | -0.0736 ± 0.65 | –

Structure (SMILES) | mitochondrial oxygen consumption rate normalised (2 µM) | mitochondrial oxygen consumption rate normalised (10 µM)
CC(CN(C)C)CN1c2ccccc2CCc2ccccc21 (configuration not stated) | -0.465 ± 0.14 | –
OC(CCN1CCCC1)(c1ccccc1)C1CCCCC1 (configuration not stated) | 0.205 ± 0.051 | –
CC(C)NCC(O)COc1cccc2[nH]ccc12 (configuration not stated) | 1.56 ± 2.1 | –
CC(C)(C)CC(C)(C)c1ccc(OCCOCC[N+](C)(C)Cc2ccccc2)cc1 | -4.121 ± 0.028 | –
Cn1nnc2c(C(N)=O)ncn2c1=O | 0.0541 ± 0.22 | –
Cn1nnc2c(C(N)=O)ncn2c1=O [Temozolomide] | 0.713 ± 0.019 | –
CN1[C@@H]2CC[C@H]1C[C@@H](OC(=O)C(O)c1ccccc1)C2 (some centres not stated) | -0.31 ± 0.75 | –
CCCCOc1ccc(C(=O)CCN2CCCCC2)cc1 | -0.0554 ± 0.73 | -0.0802 ± 0.69
C=C1CC[C@H](O)C/C1=C/C=C1\CCC[C@]2(C)[C@@H]([C@H](C)/C=C/[C@H](C)C(C)C)CC[C@@H]12 | -0.572 ± 0.85 | –
Nc1nc(N)c2nc(-c3ccccc3)c(N)nc2n1 | 0.731 ± 0.33 | –
CC(C)(C)NC(=O)[C@H]1CC[C@H]2[C@@H]3CC[C@H]4NC(=O)C=C[C@]4(C)[C@H]3CC[C@]12C | -0.345 ± 0.45 | –
Cc1c(Nc2ncccc2C(=O)O)cccc1C(F)(F)F | 0.402 ± 1.4 | –
CC[C@H](c1ccc(O)cc1)[C@@H](CC)c1ccc(O)cc1 | -0.861 ± 0.15 | –
CC(=O)OCC(=O)[C@@]1(O)CC[C@H]2[C@@H]3CCC4=CC(=O)C=C[C@]4(C)[C@H]3[C@@H](O)C[C@@]21C | 0.239 ± 0.25 | –
C[C@]12CCC(=O)C=C1CC[C@@H]1[C@@H]2[C@@H](O)C[C@@]2(C)[C@H]1CC[C@]2(O)C(=O)COP(=O)(O)O | -0.254 ± 0.21 | –
CC1(C)O[C@@H]2C[C@H]3[C@@H]4C[C@H](F)C5=CC(=O)C=C[C@]5(C)[C@H]4[C@@H](O)C[C@]3(C)[C@]2(C(=O)CO)O1 | 1.62 ± 0.97 | –
C[C@H](CS)C(=O)N1CCC[C@H]1C(=O)O | 0.771 ± 0.24 | –
CN(Cc1cc(Br)cc(Br)c1N)C1CCCCC1 | 0.619 ± 0.32 | –
NCCc1ccc(O)c(O)c1 | -0.836 ± 0.97 | –
CCOC(=O)CC(=O)N1CCSC1COc1ccccc1OC (configuration not stated) | -0.889 ± 0.56 | –

Some of the entries above, reformatted.
CC(CN(C)C)CN1c2ccccc2CCc2ccccc21 (configuration not stated)
  mitochondrial oxygen consumption rate normalised (2 µM): -0.465 ± 0.14
CC(C)NCC(O)COc1cccc2[nH]ccc12 (configuration not stated)
  mitochondrial oxygen consumption rate normalised (2 µM): 1.56 ± 2.1
CC(C)(C)CC(C)(C)c1ccc(OCCOCC[N+](C)(C)Cc2ccccc2)cc1
  mitochondrial oxygen consumption rate normalised (2 µM): -4.121 ± 0.028
C=C1CC[C@H](O)C/C1=C/C=C1\CCC[C@]2(C)[C@@H]([C@H](C)/C=C/[C@H](C)C(C)C)CC[C@@H]12
  mitochondrial oxygen consumption rate normalised (2 µM): -0.572 ± 0.85
